# Source: PMC6450972
# Sequences of proteins named here, by UniProt entry; tags and fusion partners are left off.
# UniProt Q13535: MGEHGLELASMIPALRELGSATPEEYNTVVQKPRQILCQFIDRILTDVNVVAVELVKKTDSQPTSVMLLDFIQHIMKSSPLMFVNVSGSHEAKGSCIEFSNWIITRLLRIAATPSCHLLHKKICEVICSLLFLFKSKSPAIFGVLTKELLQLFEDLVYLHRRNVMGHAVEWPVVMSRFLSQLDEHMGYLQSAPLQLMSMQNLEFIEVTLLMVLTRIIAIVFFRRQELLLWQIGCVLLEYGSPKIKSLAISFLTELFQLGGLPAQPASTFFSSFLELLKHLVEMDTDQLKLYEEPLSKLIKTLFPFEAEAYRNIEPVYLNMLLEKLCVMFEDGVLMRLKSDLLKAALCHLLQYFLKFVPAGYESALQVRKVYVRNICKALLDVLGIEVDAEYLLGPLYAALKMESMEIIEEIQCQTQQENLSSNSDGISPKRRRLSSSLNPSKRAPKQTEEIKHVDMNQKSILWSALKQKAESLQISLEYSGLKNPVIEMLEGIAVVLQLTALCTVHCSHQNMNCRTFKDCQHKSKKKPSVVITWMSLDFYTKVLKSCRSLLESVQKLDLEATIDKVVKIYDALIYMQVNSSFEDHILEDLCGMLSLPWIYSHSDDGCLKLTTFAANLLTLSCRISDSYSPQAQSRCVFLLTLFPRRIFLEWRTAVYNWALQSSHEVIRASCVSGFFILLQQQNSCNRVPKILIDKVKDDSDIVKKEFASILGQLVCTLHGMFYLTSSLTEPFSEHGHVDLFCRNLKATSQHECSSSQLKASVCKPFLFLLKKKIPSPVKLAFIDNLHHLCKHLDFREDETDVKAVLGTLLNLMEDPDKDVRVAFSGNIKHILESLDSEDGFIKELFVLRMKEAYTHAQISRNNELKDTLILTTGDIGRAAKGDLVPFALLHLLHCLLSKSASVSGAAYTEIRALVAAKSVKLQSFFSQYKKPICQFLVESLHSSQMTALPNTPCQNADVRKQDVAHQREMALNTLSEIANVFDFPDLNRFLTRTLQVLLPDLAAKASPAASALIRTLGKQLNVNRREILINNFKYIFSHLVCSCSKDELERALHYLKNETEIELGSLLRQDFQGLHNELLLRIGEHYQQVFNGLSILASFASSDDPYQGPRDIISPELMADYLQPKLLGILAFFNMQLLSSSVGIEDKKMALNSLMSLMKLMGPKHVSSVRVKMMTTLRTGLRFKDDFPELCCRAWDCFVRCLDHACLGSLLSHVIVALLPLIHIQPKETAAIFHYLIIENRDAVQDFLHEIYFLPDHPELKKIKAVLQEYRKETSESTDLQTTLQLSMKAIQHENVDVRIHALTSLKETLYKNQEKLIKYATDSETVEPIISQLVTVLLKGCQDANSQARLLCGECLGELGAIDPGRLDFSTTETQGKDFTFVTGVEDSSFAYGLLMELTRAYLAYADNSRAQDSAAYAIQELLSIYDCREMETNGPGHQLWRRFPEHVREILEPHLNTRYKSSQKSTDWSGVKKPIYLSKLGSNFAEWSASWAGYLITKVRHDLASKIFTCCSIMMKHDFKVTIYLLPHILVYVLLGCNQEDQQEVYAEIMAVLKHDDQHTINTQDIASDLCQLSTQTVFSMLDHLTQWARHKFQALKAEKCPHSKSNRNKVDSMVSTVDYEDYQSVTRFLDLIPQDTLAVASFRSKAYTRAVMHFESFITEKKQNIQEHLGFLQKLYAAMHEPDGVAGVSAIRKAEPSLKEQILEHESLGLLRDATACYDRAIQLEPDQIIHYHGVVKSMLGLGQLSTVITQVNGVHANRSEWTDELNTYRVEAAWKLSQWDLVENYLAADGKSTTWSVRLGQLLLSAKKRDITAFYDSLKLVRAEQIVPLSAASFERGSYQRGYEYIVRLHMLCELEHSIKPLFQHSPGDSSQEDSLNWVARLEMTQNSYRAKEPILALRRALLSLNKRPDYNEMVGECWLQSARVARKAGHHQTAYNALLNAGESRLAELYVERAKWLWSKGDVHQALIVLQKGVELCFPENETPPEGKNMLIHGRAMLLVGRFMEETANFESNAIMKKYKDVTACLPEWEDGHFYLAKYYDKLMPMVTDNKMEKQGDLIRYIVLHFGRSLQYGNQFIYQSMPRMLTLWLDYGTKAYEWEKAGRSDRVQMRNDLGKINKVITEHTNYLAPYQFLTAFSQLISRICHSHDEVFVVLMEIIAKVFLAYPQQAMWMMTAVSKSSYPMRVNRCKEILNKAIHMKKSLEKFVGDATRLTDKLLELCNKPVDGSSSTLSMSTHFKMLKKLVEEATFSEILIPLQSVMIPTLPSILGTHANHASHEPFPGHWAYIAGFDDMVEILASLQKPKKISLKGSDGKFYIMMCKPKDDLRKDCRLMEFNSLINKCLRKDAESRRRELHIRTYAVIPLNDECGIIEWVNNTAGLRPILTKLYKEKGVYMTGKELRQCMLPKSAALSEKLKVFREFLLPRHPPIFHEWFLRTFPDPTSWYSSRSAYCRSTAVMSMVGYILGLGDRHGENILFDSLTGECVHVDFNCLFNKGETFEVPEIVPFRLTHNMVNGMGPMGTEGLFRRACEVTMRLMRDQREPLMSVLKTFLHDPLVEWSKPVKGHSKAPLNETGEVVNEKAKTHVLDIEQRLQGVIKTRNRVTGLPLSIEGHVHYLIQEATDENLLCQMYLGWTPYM
# UniProt Q92878: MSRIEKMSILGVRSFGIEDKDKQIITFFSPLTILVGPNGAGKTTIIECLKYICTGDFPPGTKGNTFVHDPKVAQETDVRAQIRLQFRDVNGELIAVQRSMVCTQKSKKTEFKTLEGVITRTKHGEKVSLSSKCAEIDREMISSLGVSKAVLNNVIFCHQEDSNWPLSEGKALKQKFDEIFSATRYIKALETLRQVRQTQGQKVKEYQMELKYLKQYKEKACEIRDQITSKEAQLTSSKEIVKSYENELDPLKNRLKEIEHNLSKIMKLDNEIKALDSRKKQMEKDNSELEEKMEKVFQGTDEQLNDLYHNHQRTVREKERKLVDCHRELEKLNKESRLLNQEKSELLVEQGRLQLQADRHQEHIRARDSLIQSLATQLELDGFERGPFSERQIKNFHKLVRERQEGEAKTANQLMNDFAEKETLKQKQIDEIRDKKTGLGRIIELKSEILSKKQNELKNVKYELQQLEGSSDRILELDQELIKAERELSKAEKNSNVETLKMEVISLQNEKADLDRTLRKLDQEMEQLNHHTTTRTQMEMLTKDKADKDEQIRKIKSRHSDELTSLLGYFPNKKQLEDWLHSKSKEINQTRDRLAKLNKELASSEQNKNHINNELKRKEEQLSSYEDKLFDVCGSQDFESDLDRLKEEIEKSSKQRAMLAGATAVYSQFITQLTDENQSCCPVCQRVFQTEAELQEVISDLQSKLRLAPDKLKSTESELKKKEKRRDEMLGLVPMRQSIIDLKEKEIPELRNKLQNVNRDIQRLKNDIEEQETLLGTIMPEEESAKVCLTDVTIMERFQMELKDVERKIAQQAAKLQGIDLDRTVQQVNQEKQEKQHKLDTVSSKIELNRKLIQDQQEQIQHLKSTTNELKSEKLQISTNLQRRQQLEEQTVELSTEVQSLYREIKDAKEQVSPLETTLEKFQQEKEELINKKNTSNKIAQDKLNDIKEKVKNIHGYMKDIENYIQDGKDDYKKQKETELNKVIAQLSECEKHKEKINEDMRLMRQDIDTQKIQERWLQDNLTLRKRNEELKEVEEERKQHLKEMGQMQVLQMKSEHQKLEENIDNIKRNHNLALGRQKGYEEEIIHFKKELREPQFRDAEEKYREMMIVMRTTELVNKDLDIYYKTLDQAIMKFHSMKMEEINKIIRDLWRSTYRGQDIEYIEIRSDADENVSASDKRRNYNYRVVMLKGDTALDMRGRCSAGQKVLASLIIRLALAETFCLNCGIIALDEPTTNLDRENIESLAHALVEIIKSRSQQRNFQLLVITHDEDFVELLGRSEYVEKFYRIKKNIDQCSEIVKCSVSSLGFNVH
# UniProt O60934: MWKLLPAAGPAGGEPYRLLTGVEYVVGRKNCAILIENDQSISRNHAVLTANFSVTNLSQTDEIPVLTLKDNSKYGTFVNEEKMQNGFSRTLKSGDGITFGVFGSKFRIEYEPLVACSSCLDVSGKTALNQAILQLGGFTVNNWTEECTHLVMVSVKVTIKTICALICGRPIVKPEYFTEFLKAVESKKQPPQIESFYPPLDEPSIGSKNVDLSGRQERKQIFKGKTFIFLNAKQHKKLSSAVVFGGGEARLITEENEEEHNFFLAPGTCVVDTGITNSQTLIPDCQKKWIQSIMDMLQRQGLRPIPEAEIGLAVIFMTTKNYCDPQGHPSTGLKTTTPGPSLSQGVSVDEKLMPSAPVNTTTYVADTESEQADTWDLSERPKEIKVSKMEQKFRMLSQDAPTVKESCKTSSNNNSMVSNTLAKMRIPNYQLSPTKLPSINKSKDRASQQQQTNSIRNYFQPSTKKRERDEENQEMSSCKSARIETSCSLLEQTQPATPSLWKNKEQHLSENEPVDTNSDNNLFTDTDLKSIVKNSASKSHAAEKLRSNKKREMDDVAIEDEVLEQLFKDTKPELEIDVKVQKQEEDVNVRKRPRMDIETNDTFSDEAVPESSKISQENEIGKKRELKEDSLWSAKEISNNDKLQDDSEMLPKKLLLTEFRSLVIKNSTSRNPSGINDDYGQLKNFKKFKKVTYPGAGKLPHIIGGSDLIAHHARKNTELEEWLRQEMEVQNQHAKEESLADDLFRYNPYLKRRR
# These are yes or no findings as the source states them, for the method shown. In cells and extracts the contact can be indirect. Some entries that bind do so weakly or less than the wild type. Sequences can lack the tags named with a protein.
# Target: T1, TAP-Peli1 (Flag-tagged Peli1) (human) (UniProt Q96FA3)
# T1 sequence: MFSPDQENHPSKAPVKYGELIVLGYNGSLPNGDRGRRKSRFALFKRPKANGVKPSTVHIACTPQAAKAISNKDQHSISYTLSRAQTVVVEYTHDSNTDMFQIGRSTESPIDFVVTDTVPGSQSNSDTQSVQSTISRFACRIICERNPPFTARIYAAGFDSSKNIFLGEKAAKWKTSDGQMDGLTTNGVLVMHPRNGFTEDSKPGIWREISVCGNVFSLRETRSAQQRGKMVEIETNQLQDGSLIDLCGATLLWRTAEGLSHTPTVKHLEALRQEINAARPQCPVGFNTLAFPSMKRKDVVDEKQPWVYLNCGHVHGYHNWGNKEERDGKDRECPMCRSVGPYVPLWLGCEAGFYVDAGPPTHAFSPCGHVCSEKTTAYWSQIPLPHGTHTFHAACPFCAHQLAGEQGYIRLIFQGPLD
# Assay: pull-down; 293T cells transfected with TAP or TAP-Peli1, with or without IR (4 Gy, 30 min); lysed in NETN buffer; streptavidin-Sepharose beads 8 h at 4 °C; bound proteins immunoblotted
row,binding,Substance
1,no binding,"ATR (endogenous, 293T) (from UniProt Q13535 1-2644)"
2,binds,"RAD50 (endogenous, 293T) (from UniProt Q92878 1-1312)"
3,binds,"NBS1 (endogenous, 293T) (from UniProt O60934 1-754)"
